Like-named read-outs stand apart in the source and are kept apart here. These are yes or no findings as the source states them, for the method shown. In cells and extracts the contact can be indirect. Some entries that bind do so weakly or less than the wild type. For part of these data: Where a sequence is shown, tags or fusion partners need not be part of it.

Protein sequences, listed by entry. Tags and fused reporters are not part of them.
UniProt Q9Y265: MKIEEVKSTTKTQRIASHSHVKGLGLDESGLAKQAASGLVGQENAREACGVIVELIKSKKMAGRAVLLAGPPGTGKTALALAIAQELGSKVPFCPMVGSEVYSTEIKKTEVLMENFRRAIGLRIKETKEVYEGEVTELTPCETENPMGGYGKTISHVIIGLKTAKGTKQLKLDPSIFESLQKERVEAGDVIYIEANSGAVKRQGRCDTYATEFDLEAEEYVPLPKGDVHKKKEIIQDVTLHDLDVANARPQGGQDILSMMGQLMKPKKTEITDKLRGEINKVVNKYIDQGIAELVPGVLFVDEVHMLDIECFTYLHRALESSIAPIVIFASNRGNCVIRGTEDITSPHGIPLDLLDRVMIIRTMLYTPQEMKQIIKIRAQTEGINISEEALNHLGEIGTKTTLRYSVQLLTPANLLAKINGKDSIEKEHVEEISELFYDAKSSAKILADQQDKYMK

The results in this text go back to article PMC5886296.

Assay [1] deals with T1, SF-TAP-DNAAF1 wild-type (p.Leu191) (human) (UniProt Q8NEP3).
T1 sequence: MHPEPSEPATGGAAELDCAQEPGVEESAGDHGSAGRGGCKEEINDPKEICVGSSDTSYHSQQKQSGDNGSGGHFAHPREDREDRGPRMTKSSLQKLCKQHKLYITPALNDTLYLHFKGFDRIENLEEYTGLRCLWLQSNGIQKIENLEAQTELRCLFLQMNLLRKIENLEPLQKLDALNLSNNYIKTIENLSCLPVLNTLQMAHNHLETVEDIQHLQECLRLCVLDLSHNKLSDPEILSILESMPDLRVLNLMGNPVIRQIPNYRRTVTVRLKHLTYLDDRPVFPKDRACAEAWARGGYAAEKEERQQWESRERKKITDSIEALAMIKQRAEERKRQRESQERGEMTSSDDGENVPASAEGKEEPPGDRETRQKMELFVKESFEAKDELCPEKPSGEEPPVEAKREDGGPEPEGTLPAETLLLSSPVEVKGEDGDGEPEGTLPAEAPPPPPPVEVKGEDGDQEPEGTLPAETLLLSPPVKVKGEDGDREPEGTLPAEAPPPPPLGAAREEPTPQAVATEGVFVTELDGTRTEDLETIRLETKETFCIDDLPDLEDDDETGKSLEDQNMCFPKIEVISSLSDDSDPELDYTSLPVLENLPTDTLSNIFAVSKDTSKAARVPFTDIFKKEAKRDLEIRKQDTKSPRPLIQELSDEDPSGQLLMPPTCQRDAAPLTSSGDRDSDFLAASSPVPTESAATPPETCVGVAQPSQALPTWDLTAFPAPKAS
Kind of assay: co-IP; HEK293 cells over-expressing FLAG (SF-TAP)-DNAAF1, with or without IFT88-eYFP; precipitation with anti-FLAG, western blot with anti-GFP or anti-RUVBL1; 50 mM Tris pH 8.0, 150 mM NaCl, 0.5 mM EDTA, 4 °C. In general terms: In western blotting, separated proteins are transferred to a membrane and probed.

For assay [2], the target named is T1, SF-TAP-DNAAF1 wild-type (p.Leu191) (human). The description is as above. This is another data set of the same source.
The target of assay [3] is T2, endogenous IFT88 (human (endogenous in HEK293)) (UniProt Q13099).
T2 sequence: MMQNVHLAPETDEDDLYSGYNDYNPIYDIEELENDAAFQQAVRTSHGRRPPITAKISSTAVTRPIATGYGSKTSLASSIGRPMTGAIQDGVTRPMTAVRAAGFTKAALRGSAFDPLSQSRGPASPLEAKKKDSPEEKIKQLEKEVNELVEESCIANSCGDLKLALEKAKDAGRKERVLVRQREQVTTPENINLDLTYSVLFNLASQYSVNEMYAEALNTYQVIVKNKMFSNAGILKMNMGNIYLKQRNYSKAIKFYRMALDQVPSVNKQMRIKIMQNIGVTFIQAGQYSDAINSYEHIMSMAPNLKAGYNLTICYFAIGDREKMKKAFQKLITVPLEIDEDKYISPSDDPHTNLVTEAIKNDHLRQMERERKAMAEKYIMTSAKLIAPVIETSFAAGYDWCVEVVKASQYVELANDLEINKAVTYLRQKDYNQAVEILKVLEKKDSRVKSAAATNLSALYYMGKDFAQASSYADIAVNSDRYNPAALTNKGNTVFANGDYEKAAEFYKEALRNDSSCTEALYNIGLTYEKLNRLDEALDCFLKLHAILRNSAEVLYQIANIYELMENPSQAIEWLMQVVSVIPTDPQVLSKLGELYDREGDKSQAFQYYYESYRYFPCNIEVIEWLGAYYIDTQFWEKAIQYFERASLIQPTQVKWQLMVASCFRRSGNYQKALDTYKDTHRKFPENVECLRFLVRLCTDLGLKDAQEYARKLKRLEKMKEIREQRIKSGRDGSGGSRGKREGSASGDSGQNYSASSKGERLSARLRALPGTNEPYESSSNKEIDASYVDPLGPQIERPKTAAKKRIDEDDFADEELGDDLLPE
Kind of assay: co-IP; HEK293 cells over-expressing FLAG (SF-TAP)-DNAAF1; endogenous IFT88 precipitated with anti-IFT88, western blot with anti-FLAG; 50 mM Tris pH 8.0, 150 mM NaCl, 0.5 mM EDTA, 4 °C.

In the case of RUVBL1 (from UniProt Q9Y265 1-456), the binding result in assay [1] was “binds”.

B1: IFT88-eYFP (protein, UniProt Q13099 1-824)
chain: MMQNVHLAPETDEDDLYSGYNDYNPIYDIEELENDAAFQQAVRTSHGRRPPITAKISSTAVTRPIATGYGSKTSLASSIGRPMTGAIQDGVTRPMTAVRAAGFTKAALRGSAFDPLSQSRGPASPLEAKKKDSPEEKIKQLEKEVNELVEESCIANSCGDLKLALEKAKDAGRKERVLVRQREQVTTPENINLDLTYSVLFNLASQYSVNEMYAEALNTYQVIVKNKMFSNAGILKMNMGNIYLKQRNYSKAIKFYRMALDQVPSVNKQMRIKIMQNIGVTFIQAGQYSDAINSYEHIMSMAPNLKAGYNLTICYFAIGDREKMKKAFQKLITVPLEIDEDKYISPSDDPHTNLVTEAIKNDHLRQMERERKAMAEKYIMTSAKLIAPVIETSFAAGYDWCVEVVKASQYVELANDLEINKAVTYLRQKDYNQAVEILKVLEKKDSRVKSAAATNLSALYYMGKDFAQASSYADIAVNSDRYNPAALTNKGNTVFANGDYEKAAEFYKEALRNDSSCTEALYNIGLTYEKLNRLDEALDCFLKLHAILRNSAEVLYQIANIYELMENPSQAIEWLMQVVSVIPTDPQVLSKLGELYDREGDKSQAFQYYYESYRYFPCNIEVIEWLGAYYIDTQFWEKAIQYFERASLIQPTQVKWQLMVASCFRRSGNYQKALDTYKDTHRKFPENVECLRFLVRLCTDLGLKDAQEYARKLKRLEKMKEIREQRIKSGRDGSGGSRGKREGSASGDSGQNYSASSKGERLSARLRALPGTNEPYESSSNKEIDASYVDPLGPQIERPKTAAKKRIDEDDFADEELGDDLLPE
Turning to B1, in assay [2], the binding entry was “binds”.

B2: SF-TAP-DNAAF1 wild-type (p.Leu191) (protein, UniProt Q8NEP3-1 1-725)
chain: MHPEPSEPATGGAAELDCAQEPGVEESAGDHGSAGRGGCKEEINDPKEICVGSSDTSYHSQQKQSGDNGSGGHFAHPREDREDRGPRMTKSSLQKLCKQHKLYITPALNDTLYLHFKGFDRIENLEEYTGLRCLWLQSNGIQKIENLEAQTELRCLFLQMNLLRKIENLEPLQKLDALNLSNNYIKTIENLSCLPVLNTLQMAHNHLETVEDIQHLQECLRLCVLDLSHNKLSDPEILSILESMPDLRVLNLMGNPVIRQIPNYRRTVTVRLKHLTYLDDRPVFPKDRACAEAWARGGYAAEKEERQQWESRERKKITDSIEALAMIKQRAEERKRQRESQERGEMTSSDDGENVPASAEGKEEPPGDRETRQKMELFVKESFEAKDELCPEKPSGEEPPVEAKREDGGPEPEGTLPAETLLLSSPVEVKGEDGDGEPEGTLPAEAPPPPPPVEVKGEDGDQEPEGTLPAETLLLSPPVKVKGEDGDREPEGTLPAEAPPPPPLGAAREEPTPQAVATEGVFVTELDGTRTEDLETIRLETKETFCIDDLPDLEDDDETGKSLEDQNMCFPKIEVISSLSDDSDPELDYTSLPVLENLPTDTLSNIFAVSKDTSKAARVPFTDIFKKEAKRDLEIRKQDTKSPRPLIQELSDEDPSGQLLMPPTCQRDAAPLTSSGDRDSDFLAASSPVPTESAATPPETCVGVAQPSQALPTWDLTAFPAPKAS
Take B2: the binding result in assay [3] was “binds”.
